From the supplement of paper PMC8426693
Some of the results follow.

Legend:
Test in all cases: NMR binding call after quantification (hit when 2 of 3 NMR criteria are met) (binary (1 = binding, 0 = not binding)); higher = binding
Conditions in all cases: RNA concentration 10 µM; fragment concentration 200 µM; 293 K
SARS-CoV-2 5_SL7 RNA = system: SARS-CoV-2 5_SL7 RNA
SARS-CoV-2 5_SL8 RNA = system: SARS-CoV-2 5_SL8 RNA
[1] = system: SARS-CoV-2 attenuator hairpin (att HP) RNA
[2] = system: SARS-CoV-2 frameshift pseudoknot (PK) RNA

Compound	NMR binding call (SARS-CoV-2 5_SL7 RNA)	NMR binding call (SARS-CoV-2 5_SL8 RNA)	NMR binding call [1]	NMR binding call [2]
CCOc1ccccc1N1CCNCC1.Cl	0	0	0	0
CCC(=O)Nc1ccc(N2CCC(C)CC2)cc1	0	0	0	0
CS(=O)(=O)N1CCC(O)CC1	0	0	0	0
Fc1ccc(NC2CCOCC2)nc1	0	0	0	0
NC(=O)N1CCN(C(=O)c2ccco2)CC1	0	0	0	0
CC(O)CNCc1ccc2c(c1)OCO2 (stereo not drawn)	0	0	0	0
CC(=O)NCc1ncc[nH]1	0	0	0	0
c1csc(-c2ncc[nH]2)c1	0	0	0	0
c1csc(-c2nc(N3CCCCC3)no2)c1	0	0	0	0
Cc1[nH]cnc1CN1CCc2ccccc2C1	0	0	0	0
CC1=NN(c2ccccc2)C(=O)C1	0	0	0	0
OCc1ccccc1N1CCOCC1	0	0	0	0
Nc1ccc(S(=O)(=O)Nc2ccccn2)cc1	0	0	0	0
CC(=O)Nc1cc(C(N)=O)cc(C(N)=O)c1	0	0	0	0
Cc1ccc(C(=O)Nc2nnc[nH]2)cc1C	0	0	0	0
CCc1ccccc1NC(=O)c1snnc1C	0	0	0	0
CC(=O)N1CC(O)CC1C(=O)O (stereo not drawn)	0	0	0	0
CC(C)c1ccc(CN2CCC(O)CC2)cc1	0	0	0	0
CC(C)Oc1ccc(-c2csc(N)n2)cc1	0	0	0	0
Cc1cc(C2CCCN2S(C)(=O)=O)no1 (stereo not drawn)	0	0	0	0
CS(=O)(=O)Cc1nc2ccccc2[nH]1	0	0	0	0
Cn1cc(C(N)=O)c(C(F)F)n1	0	0	0	0

Compound	NMR binding call (SARS-CoV-2 5_SL7 RNA)	NMR binding call (SARS-CoV-2 5_SL8 RNA)	NMR binding call [1]	NMR binding call [2]
Cc1ncc(CN2CCNCC2)s1	0	0	0	0
CC(=O)N(C)c1cccnc1	0	0	0	0
CC(=O)c1ccc(OC(F)F)cc1	0	0	0	0
c1cc(NCC2CCCO2)ccn1 (stereo not drawn)	0	0	0	0
NCc1ccc(-c2cccs2)cc1	0	0	0	0
Cn1nc(C(N)=O)c2ccccc21	0	0	0	0
Cc1cc(CN(C)C(=O)NC2CC2)no1	0	0	0	0
O=C(O)COCc1ccccc1	0	0	0	0
CN1CCN(C(=O)Nc2ccc(F)cc2)CC1	0	0	0	0
Cc1ccc(OCC(=O)Nc2cc(C)on2)cc1	0	0	0	0
Cl.Cl.O=C(c1ccncc1)N1CCNCC1	0	0	0	0
CC(=O)N1CCN(C(N)=O)CC1	0	0	0	0
c1cnc(NC2CCCCCC2)nc1	0	0	0	0
O=C(NCc1ccco1)NC1CCCCC1	0	0	0	0
CS(=O)(=O)c1nccn1Cc1cscn1	0	0	0	0
CCS(=O)(=O)NCc1ccc2c(c1)OCO2	0	0	0	0
CCNC(=O)Nc1cc(C)on1	0	0	0	0
CCn1cc(C(=O)NCc2ccc(F)cc2)cn1	0	0	0	0
CN(C1CCCCCC1)S(C)(=O)=O	0	0	0	0
c1nc(CN2CCNCC2)cs1	0	0	0	0
c1cc(CN2CCNCC2)no1	0	0	0	0
COc1ccc(C)cc1NC(=O)CN.Cl	0	0	0	0

Compound	NMR binding call (SARS-CoV-2 5_SL7 RNA)	NMR binding call (SARS-CoV-2 5_SL8 RNA)	NMR binding call [1]	NMR binding call [2]
CC(C)C(N)C(=O)N1CCOCC1 (stereo not drawn)	0	0	0	0
CNC(C)c1ccc(F)cc1.Cl (stereo not drawn)	0	0	0	0
CCN1CCN(C(=O)NC2CCCCC2)CC1	0	0	0	0
CN(C)Cc1nc(C2(N)CCCC2)no1	0	0	–	0
O=C(Nc1ccc(F)cc1)Nc1cccc(O)c1	0	–	0	0
Cc1c(Cl)cccc1NC(=O)CN.Cl	0	0	0	0
N#Cc1ccc(N2CCNCC2)c(F)c1	0	0	0	0
CCN(CC)c1cccc(O)c1	0	0	–	0
COC(=O)c1ccccc1NC(=O)N1CCCC1	0	0	–	0
Cn1c(CNC2CCCCC2)nc2ccccc21	0	0	0	0
Cc1occc1C(=O)Nc1ccncc1	0	1	–	1
c1ccc(CNC2CCNC2)cc1 (stereo not drawn)	0	0	–	0
CC(N)c1cn(-c2ccccc2)nn1.Cl (stereo not drawn)	0	–	0	0
COC(C)c1nc(-c2cnoc2C)cs1 (stereo not drawn)	0	0	–	0
O=C(OCc1ccc(Cl)cc1)c1cccnc1	0	0	0	0
Cc1ccc(NC(=O)c2ccccc2C)c(O)c1	0	0	–	0
CC(C)(C)C(=O)NCCc1nc2ccccc2[nH]1	0	0	–	0
CCNc1ccc(C)nn1	0	0	–	0
CCc1nc(-c2ccc(Cl)cc2)no1	0	–	0	0
c1ccc(SCCN2CCOCC2)cc1	0	0	–	0
CC(C)(C)NC(=O)Cn1ccc(C(F)(F)F)n1	0	0	–	0
O=C(NCCc1ccncc1)c1ccccc1F	0	0	–	0

Part of the list above in order of length of the SMILES, descending:
Compound	NMR binding call (SARS-CoV-2 5_SL7 RNA)	NMR binding call (SARS-CoV-2 5_SL8 RNA)	NMR binding call [1]	NMR binding call [2]
N#Cc1ccc(N2CCNCC2)c(F)c1	0	0	0	0
Cn1nc(C(N)=O)c2ccccc21	0	0	0	0
CC(=O)N(C)c1cccnc1	0	0	0	0
CCNc1ccc(C)nn1	0	0	–	0

(cont.)

Compound	NMR binding call (SARS-CoV-2 5_SL7 RNA)	NMR binding call (SARS-CoV-2 5_SL8 RNA)	NMR binding call [1]	NMR binding call [2]
CC(C)(N)CN1CCCC1	0	0	0	0
CC(N)C(=O)N1CCCCC1C (stereo not drawn)	0	0	0	0
CNc1nccc(OC)n1	0	0	–	0
Fc1ccc(Cn2cnc3ccccc32)cc1	0	0	0	0
Cl.NCc1cc(-c2ccccc2)no1	1	–	0	0
COCC(=O)Nc1ccccc1C(N)=O	0	0	0	0
CCN1N=C(C(F)(F)F)CC1=O	0	0	–	0
COc1ccc(NCc2ccccc2O)cc1	0	0	–	0
COC(=O)Nc1ccc(Cc2ccncc2)cc1	0	0	–	0
Cc1cccc(NC(=O)CN2CCOCC2)c1C	0	0	–	0
Cc1ccc(N2CCN(C(N)=O)CC2)cc1	0	0	–	0
OC1CN(C(c2ccccc2)c2ccccc2)C1	0	0	–	0
N#CCC(=O)Nc1ccc(Cl)cc1	0	0	–	0
C(#Cc1ccccc1)CN1CCCCC1	0	0	0	0
COCC1CN(c2ccccn2)CCO1 (stereo not drawn)	0	0	–	0
CCC(NC)c1ccncc1 (stereo not drawn)	0	–	0	0
CNS(=O)(=O)c1ccccc1Cl	0	0	0	0
CC(C)n1cnc(S(N)(=O)=O)c1	0	0	0	0
CCOC(=O)Nc1cccc(Cl)c1	0	0	0	0
FC(F)(F)c1ccc(CN2CCOCC2)cc1	0	0	–	0
c1ccc(CN2CCC(n3cccc3)CC2)cc1	0	–	0	0
NC(=O)c1ccc(NC(=O)c2cnccn2)cc1	0	–	0	0
